Experimental data reported in ChEMBL document CHEMBL1687827, “Profiling the Aspergillus fumigatus proteome in response to caspofungin” (2011).
This continues a long series; more values of the same kind are listed elsewhere.

Columns and labels:
Type in all cases: functional
[1] = tested on: Aspergillus fumigatus; assay: Induction of change in secreted dipeptidyl peptidase DppV protein level in iTRAQ121 labelled cell wall fraction of drug-susceptible Aspergillus fumigatus KU80 delta-akuB at 0.12 ug/ml after 48 hrs in YPD medium by MS (MS/MS) analysis relative to control
[2] = tested on: Aspergillus fumigatus; assay: Induction of change in nuclear transport factor NTF-2, putative protein level in iTRAQ-116 labelled secreted fraction of drug-susceptible Aspergillus fumigatus KU80 delta-akuB at 0.12 ug/ml after 48 hrs in YPD medium by MS (MS/MS) analysis relative to control
[3] = tested on: Aspergillus fumigatus; assay: Induction of change in translation elongation factor EF-Tu, putative protein level in iTRAQ-116 labelled secreted fraction of drug-susceptible Aspergillus fumigatus KU80 delta-akuB at 0.12 ug/ml after 48 hrs in YPD medium by MS (MS/MS) analysis relative to control
[4] = tested on: Aspergillus fumigatus; assay: Induction of change in ubiquitin (UbiC), putative gene expression in drug-susceptible Aspergillus fumigatus KU80 delta-akuB at 0.12 ug/ml after 24 hrs in YPD medium by microarray analysis relative to control
[5] = tested on: Aspergillus fumigatus; assay: Induction of change in Mn superoxide dismutase MnSOD protein level in iTRAQ114 labelled secreted fraction of drug-susceptible Aspergillus fumigatus KU80 delta-akuB at 0.12 ug/ml after 24 hrs in YPD medium by MS (MS/MS) analysis relative to control
[6] = tested on: Aspergillus fumigatus; assay: Induction of change in hypothetical gene locus AFUA_6G00740 expression in drug-susceptible Aspergillus fumigatus KU80 delta-akuB at 0.12 ug/ml after 24 hrs in YPD medium by microarray analysis relative to control
[7] = tested on: Aspergillus fumigatus; assay: Induction of change in ubiquitin (UbiC), putative protein level in iTRAQ114 labelled secreted fraction of drug-susceptible Aspergillus fumigatus KU80 delta-akuB at 0.12 ug/ml after 24 hrs in YPD medium by MS (MS/MS) analysis relative to control
[8] = tested on: Aspergillus fumigatus; assay: Induction of change in 60s ribosomal protein l21 protein level in iTRAQ114 labelled cell wall fraction of drug-susceptible Aspergillus fumigatus KU80 delta-akuB at 0.12 ug/ml after 24 hrs in YPD medium by MS (MS/MS) analysis relative to control
[9] = tested on: Aspergillus fumigatus; assay: Induction of change in conserved hypothetical gene locus AFUA_8G00970 expression in drug-susceptible Aspergillus fumigatus KU80 delta-akuB at 0.12 ug/ml after 48 hrs in YPD medium by microarray analysis relative to control
[10] = tested on: Aspergillus fumigatus; assay: Induction of change in ribosomal protein S14.e gene expression in drug-susceptible Aspergillus fumigatus KU80 delta-akuB at 0.12 ug/ml after 24 hrs in YPD medium by microarray analysis relative to control
[11] = tested on: Aspergillus fumigatus; assay: Induction of change in fructose-bisphosphate aldolase, class II protein level in iTRAQ-116 labelled cell wall fraction of drug-susceptible Aspergillus fumigatus KU80 delta-akuB at 0.12 ug/ml after 48 hrs in YPD medium by MS (MS/MS) analysis relative to control
[12] = tested on: Aspergillus fumigatus; assay: Induction of change in CipC-like antibiotic response protein, putative protein level in iTRAQ-118 labelled cell wall fraction of drug-resistant Aspergillus fumigatus EMFR-S678P at 0.12 ug/ml after 24 hrs in YPD medium by MS (MS/MS) analysis relative to control
[13] = tested on: Aspergillus fumigatus; assay: Induction of change in secreted dipeptidyl peptidase DppV protein level in iTRAQ-118 labelled cell wall fraction of drug-resistant Aspergillus fumigatus EMFR-S678P at 0.12 ug/ml after 24 hrs in YPD medium by MS (MS/MS) analysis relative to control
[14] = tested on: Aspergillus fumigatus; assay: Induction of change in FKBP-type peptidyl-prolyl isomerase, putative protein level in iTRAQ-116 labelled secreted fraction of drug-resistant Aspergillus fumigatus EMFR-S678P at 0.12 ug/ml after 48 hrs in YPD medium by MS (MS/MS) analysis relative to control
[15] = tested on: Aspergillus fumigatus; assay: Induction of change in Ran-specific GTPase-activating protein 1, putative protein level in iTRAQ-116 labelled secreted fraction of drug-resistant Aspergillus fumigatus EMFR-S678P at 0.12 ug/ml after 48 hrs in YPD medium by MS (MS/MS) analysis relative to control
[16] = tested on: Aspergillus fumigatus; assay: Induction of change in 60S ribosomal protein L11 protein level in iTRAQ114 labelled cell wall fraction of drug-susceptible Aspergillus fumigatus KU80 delta-akuB at 0.12 ug/ml after 24 hrs in YPD medium by MS (MS/MS) analysis relative to control
[17] = tested on: Aspergillus fumigatus; assay: Induction of change in Ribosomal protein S5 protein level in iTRAQ114 labelled cell wall fraction of drug-susceptible Aspergillus fumigatus KU80 delta-akuB at 0.12 ug/ml after 24 hrs in YPD medium by MS (MS/MS) analysis relative to control
[18] = tested on: Aspergillus fumigatus; assay: Induction of change in 40S ribosomal protein S10b protein level in iTRAQ114 labelled cell wall fraction of drug-susceptible Aspergillus fumigatus KU80 delta-akuB at 0.12 ug/ml after 24 hrs in YPD medium by MS (MS/MS) analysis relative to control
[19] = tested on: Aspergillus fumigatus; assay: Induction of change in cytochrome c oxidase polypeptide vib protein level in iTRAQ-118 labelled cell wall fraction of drug-susceptible Aspergillus fumigatus KU80 delta-akuB at 0.12 ug/ml after 24 hrs in YPD medium by MS (MS/MS) analysis relative to control
[20] = tested on: Aspergillus fumigatus; assay: Induction of change in cytochrome c protein level in iTRAQ-118 labelled cell wall fraction of drug-susceptible Aspergillus fumigatus KU80 delta-akuB at 0.12 ug/ml after 24 hrs in YPD medium by MS (MS/MS) analysis relative to control
[21] = tested on: Aspergillus fumigatus; assay: Induction of change in GPI-anchored cell wall organization protein Ecm33 protein level in iTRAQ-118 labelled cell wall fraction of drug-susceptible Aspergillus fumigatus KU80 delta-akuB at 0.12 ug/ml after 24 hrs in YPD medium by MS (MS/MS) analysis relative to control
[22] = tested on: Aspergillus fumigatus; assay: Induction of change in SUN domain protein (Uth1), putative protein level in iTRAQ-118 labelled cell wall fraction of drug-susceptible Aspergillus fumigatus KU80 delta-akuB at 0.12 ug/ml after 24 hrs in YPD medium by MS (MS/MS) analysis relative to control
[23] = tested on: Aspergillus fumigatus; assay: Induction of change in Eukaryotic translation initiation factor eIF-5A protein level in iTRAQ-118 labelled cell wall fraction of drug-susceptible Aspergillus fumigatus KU80 delta-akuB at 0.12 ug/ml after 24 hrs in YPD medium by MS (MS/MS) analysis relative to control
[24] = tested on: Aspergillus fumigatus; assay: Induction of change in cytochrome c oxidase subunit Va, putative protein level in iTRAQ-118 labelled cell wall fraction of drug-susceptible Aspergillus fumigatus KU80 delta-akuB at 0.12 ug/ml after 24 hrs in YPD medium by MS (MS/MS) analysis relative to control

CC[C@H](C)C[C@H](C)CCCCCCCCC(=O)N[C@H]1C[C@@H](O)[C@@H](NCCN)NC(=O)[C@@H]2[C@@H](O)CCN2C(=O)[C@H]([C@H](O)CCN)NC(=O)[C@H]([C@H](O)[C@@H](O)c2ccc(O)cc2)NC(=O)[C@@H]2C[C@@H](O)CN2C(=O)[C@H]([C@@H](C)O)NC1=O [CASPOFUNGIN]
fold change (FC) [1]: -2.1 | fold change (FC) [2]: -3.5 | fold change (FC) [3]: -2.8 | fold change (FC) [4]: 6.5 | fold change (FC) [5]: -1.6 | fold change (FC) [6]: -9 | fold change (FC) [7]: -1.9 | fold change (FC) [8]: 1.6 | fold change (FC) [9]: -2.6 | fold change (FC) [10]: 3.7 | fold change (FC) [11]: 1.5 | fold change (FC) [12]: 1.52 | fold change (FC) [13]: -1.74 | fold change (FC) [14]: -1.32 | fold change (FC) [15]: -1.07 | fold change (FC) [16]: 2.1 | fold change (FC) [17]: 2.3 | fold change (FC) [18]: 2.3 | fold change (FC) [19]: -4.9 | fold change (FC) [20]: -3.5 | fold change (FC) [21]: -3.2 | fold change (FC) [22]: -3 | fold change (FC) [23]: -2 | fold change (FC) [24]: -2
